Measured values from publication PMC5406017.

Sequences of proteins named here, by UniProt entry; tags and fusion partners are left off. A change or cut given only in a name is not applied to a line headed by its entry.
UniProt Q24547: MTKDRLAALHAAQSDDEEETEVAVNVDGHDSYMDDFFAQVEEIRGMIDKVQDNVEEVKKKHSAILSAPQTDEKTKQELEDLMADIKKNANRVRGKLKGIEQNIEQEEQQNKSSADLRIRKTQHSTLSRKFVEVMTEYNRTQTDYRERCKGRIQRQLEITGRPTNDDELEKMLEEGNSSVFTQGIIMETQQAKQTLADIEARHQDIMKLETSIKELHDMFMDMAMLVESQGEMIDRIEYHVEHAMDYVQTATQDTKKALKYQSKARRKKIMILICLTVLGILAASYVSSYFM
UniProt Q9VH76: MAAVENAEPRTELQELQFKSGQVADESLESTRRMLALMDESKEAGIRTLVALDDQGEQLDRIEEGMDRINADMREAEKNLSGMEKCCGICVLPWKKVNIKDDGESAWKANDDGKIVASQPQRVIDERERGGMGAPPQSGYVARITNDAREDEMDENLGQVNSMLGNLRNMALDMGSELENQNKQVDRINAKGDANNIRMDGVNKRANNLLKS
UniProt A0A0B4LF19: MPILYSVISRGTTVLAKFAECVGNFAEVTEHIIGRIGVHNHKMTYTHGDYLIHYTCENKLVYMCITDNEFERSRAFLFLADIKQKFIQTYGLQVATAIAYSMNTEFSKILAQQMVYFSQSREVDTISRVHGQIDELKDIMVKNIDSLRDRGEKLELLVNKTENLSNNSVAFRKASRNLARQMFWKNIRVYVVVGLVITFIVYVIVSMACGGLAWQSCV

B1: Synaptobrevin (protein, UniProt P18489 1-152)
chain: MENNEAPSPSGSNNNDFPILPPPPNANDNYNQFGDHQIRNNNAAQKKLQQTQAKVDEVVGIMRVNVEKVLERDQKLSELGERADQLEQGASQFEQQAGKLKRKQWWANMKMMIILGVIAVVLLIIVLVSVWPSSSDSGSGGGNKAITQAPPH

These molecules were tested against HA tagged Drosophila STX1 (Drosophila) (UniProt Q24547) (assay: affinity purification with mass spectrometry; native immunoprecipitation of HA tagged STX1 on anti-HA resin from cleared lysate of stably expressing Drosophila cells (100 mM NaCl, 5 mM MgCl2, 50 mM Tris pH 7.4, 0.5% Igepal CA-630), eluted with HA-peptide, SDS-PAGE, major bands identified by MALDI-MS / MSMS).
In the case of SNAP24 (from UniProt Q9VH76), the binding is reported as “binds”.
VAMP7 (from UniProt A0A0B4LF19) was tested, and the binding was “binds”.
With B1 the binding was “binds”.

No constants are given. Whether binding was seen depends on the method and setting. In cells and extracts the contact can be indirect. Here binding means that the protein was enriched with, or labelled near, the bait; the list need not be complete.
